Results are given in words; binding and its absence hold for the method and conditions named. Some results given as binding are weak or reduced against the parent protein; the word gives no strength.

Amino acid sequences for entries named in this document (tags omitted). Residues count along the entry.
UniProt P26718, residues 73-216: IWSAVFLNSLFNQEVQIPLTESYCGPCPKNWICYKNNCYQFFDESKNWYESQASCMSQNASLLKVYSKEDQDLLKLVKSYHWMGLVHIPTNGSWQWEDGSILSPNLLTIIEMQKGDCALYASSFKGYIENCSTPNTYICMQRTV

The target in the assay is T1, human MICA expressed on MC38 cells (human) (UniProt Q29983).
T1 sequence: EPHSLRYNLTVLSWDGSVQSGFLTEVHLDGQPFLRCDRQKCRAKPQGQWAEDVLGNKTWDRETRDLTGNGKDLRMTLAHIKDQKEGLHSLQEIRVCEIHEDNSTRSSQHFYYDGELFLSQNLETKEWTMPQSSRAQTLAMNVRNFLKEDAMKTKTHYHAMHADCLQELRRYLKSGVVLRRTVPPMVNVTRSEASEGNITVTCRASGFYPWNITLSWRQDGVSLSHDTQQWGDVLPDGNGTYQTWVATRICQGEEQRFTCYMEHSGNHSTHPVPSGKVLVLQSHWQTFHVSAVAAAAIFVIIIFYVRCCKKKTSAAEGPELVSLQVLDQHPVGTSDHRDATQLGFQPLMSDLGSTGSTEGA
Put plainly: flow cytometry on cells. For orientation: A flow cytometer gives signals particle by particle.

Consider “NKG2D-Fc (from UniProt P26718 73-216) (Fc fusion)”, for which the binding result is reported as “binds”.

Values taken from article doi:10.1101/2024.07.30.605880.
